# Test results published in patent US20240424055A1 (published 2024).
# Sequences of proteins named here, by UniProt entry; tags and fusion partners are left off. Residues count along the entry.
# UniProt P01031, 19-1676 limits assumed: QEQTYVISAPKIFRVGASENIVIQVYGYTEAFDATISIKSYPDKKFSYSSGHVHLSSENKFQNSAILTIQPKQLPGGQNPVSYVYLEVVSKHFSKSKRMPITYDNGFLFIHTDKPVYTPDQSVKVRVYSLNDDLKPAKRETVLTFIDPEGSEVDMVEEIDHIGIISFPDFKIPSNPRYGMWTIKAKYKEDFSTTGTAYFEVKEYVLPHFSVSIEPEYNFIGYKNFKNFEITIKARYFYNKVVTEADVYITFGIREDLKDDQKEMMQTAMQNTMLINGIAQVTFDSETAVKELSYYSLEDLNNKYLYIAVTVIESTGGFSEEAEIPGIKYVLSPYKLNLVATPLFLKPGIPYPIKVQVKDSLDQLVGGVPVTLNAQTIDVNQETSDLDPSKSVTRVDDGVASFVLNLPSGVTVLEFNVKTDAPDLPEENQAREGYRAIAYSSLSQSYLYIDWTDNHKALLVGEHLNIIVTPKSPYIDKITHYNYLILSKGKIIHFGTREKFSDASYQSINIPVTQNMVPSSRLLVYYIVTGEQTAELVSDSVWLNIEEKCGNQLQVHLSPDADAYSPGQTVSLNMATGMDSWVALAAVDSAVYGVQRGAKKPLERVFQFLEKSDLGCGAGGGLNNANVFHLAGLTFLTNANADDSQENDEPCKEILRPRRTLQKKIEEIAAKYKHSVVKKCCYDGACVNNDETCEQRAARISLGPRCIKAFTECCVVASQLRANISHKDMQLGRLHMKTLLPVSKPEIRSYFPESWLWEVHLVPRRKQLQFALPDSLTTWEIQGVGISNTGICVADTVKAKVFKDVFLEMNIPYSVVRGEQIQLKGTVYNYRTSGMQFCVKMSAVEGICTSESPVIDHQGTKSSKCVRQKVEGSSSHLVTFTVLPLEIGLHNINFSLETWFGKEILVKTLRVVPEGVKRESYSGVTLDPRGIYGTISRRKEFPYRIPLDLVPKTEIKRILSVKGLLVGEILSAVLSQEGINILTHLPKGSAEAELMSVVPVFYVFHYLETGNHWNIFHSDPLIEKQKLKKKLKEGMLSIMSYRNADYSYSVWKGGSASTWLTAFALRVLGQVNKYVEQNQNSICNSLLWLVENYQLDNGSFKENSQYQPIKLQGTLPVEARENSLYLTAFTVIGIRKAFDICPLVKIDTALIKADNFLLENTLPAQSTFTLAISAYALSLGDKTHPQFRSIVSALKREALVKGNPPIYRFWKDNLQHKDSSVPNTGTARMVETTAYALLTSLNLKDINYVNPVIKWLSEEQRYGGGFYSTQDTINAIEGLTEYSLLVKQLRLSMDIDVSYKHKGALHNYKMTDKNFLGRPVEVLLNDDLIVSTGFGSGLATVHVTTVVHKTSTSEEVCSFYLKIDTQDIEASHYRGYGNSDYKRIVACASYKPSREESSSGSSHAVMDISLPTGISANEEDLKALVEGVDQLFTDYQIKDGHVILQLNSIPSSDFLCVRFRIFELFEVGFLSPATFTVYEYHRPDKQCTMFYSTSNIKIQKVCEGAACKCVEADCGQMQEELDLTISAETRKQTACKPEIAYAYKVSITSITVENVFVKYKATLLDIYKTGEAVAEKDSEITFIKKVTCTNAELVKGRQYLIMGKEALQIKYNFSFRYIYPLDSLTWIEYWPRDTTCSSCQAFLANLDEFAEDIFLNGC
# Tests used:
# [1] = target: T1, human complement protein C5 (human, UniProt P01031 19-1676); assay: surface plasmon resonance, kinetics
# T1 construct: The mature natural protein is a two-chain (alpha/beta) product of one precursor; In the hemolysis assay and the clinical samples it is the endogenous C5 of human serum; also called human C5; complement C5
# Experimental: (§1) The specificity and affinity of binding of the C5-binding protein (73.46 mg/mL in PBS) to human C5 in vitro was determined by measuring the kinetics of its binding to human C5 as compared to its binding to human C3, C4, and human IgG using surface plasmon resonance methods. C3 and C4 are the 2 proteins most closely related to C5, sharing approximately 30% overall protein sequence identity to human C5 (Wetsel et al, 1988, “Molecular Analysis of Human Complement Component C5: Localization of the Structural Gene to Chromosome 9:” Biochemistry; Vol. 27(5): pp. 1474-1482), and IgG is the original ligand of the affibody scaffold from which the affibody portion of the C5-binding protein was engineered.
# human C4 = target: T2, human C4 (human); assay: surface plasmon resonance; reference is binding to human C5
# T2 construct: Specificity control in SPR
# Experimental: as §1
# human IgG = target: T3, human IgG (human); assay: as above
# T3 construct: Specificity control in SPR, described as the original ligand of the affibody scaffold
# Experimental: as §1
binder,measurement,setting,value
"C5-binding protein (designed binder, 1; also called the active agent; the study drug) AEAKYAKEVLEAWDEIDRLPNLTIEQWLAFINKLDDDPSQSSELLSEAKKLSESQAPKVEGSLAEAKEAANAELDSYGVSDFYKRLIDKAKTVEGVEALKDAILAALP",Kd,[1],~0.38 nM
same,selectivity for human C5 over C4 (fold),human C4,≥ 4000 fold
same,selectivity for human C5 over IgG (fold),human IgG,≥ 4000 fold
